Results are given in words; binding and its absence hold for the method and conditions named. Some results given as binding are weak or reduced against the parent protein; the word gives no strength. Tags and fused reporters may be left off the sequences shown.
What was measured:
[1] = molecular target: T1, Mammalian expressed extracellular human RON protein (Gly25 to Thr957) with His-tag (human) (UniProt Q04912); test: KinExA titration, antibody titrated into fixed RON ECD concentrations of 50 nM and 5 nM [continued]
T1 sequence: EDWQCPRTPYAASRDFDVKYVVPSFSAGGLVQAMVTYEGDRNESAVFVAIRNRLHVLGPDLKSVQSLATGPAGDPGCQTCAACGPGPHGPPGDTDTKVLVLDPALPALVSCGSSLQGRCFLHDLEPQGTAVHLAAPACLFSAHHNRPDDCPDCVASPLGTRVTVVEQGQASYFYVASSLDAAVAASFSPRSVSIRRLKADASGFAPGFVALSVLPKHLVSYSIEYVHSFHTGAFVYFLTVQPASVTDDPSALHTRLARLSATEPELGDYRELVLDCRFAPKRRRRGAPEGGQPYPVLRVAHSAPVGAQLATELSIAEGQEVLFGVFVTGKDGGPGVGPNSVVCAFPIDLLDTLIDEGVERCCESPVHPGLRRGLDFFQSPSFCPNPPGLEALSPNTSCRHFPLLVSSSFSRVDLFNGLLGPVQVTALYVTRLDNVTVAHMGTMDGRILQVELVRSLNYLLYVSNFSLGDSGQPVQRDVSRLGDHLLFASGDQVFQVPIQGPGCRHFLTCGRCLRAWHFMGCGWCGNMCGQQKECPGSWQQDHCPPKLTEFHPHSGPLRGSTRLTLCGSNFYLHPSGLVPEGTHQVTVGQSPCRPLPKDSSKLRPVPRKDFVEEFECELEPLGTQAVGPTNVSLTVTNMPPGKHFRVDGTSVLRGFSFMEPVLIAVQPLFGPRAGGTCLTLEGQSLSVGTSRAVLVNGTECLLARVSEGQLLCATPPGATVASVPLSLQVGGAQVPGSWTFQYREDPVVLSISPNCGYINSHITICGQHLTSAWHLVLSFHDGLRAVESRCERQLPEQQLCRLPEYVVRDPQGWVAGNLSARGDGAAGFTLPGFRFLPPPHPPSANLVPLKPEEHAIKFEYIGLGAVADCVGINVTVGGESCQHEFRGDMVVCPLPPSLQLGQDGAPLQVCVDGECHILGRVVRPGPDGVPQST

[2] = molecular target: T1, Mammalian expressed extracellular human RON protein (Gly25 to Thr957) with His-tag (human); test: ELISA, coated RON ECD
[3] = molecular target: T1, Mammalian expressed extracellular human RON protein (Gly25 to Thr957) with His-tag (human); test: ELISA, coated His-tagged RON ECD
[4] = molecular target: T1, Mammalian expressed extracellular human RON protein (Gly25 to Thr957) with His-tag (human); test: ELISA, plate coated with His-tagged RON ECD, absorbance at 650 nm
[5] = molecular target: T1, Mammalian expressed extracellular human RON protein (Gly25 to Thr957) with His-tag (human); test: KinExA titration, antibody titrated into a fixed RON ECD concentration of 100 nM [continued]
[6] = molecular target: T1, Mammalian expressed extracellular human RON protein (Gly25 to Thr957) with His-tag (human); test: SPR, preliminary
[7] = molecular target: T1, Mammalian expressed extracellular human RON protein (Gly25 to Thr957) with His-tag (human); test: KinExA titration, antibody titrated into fixed RON ECD concentrations of 400 nM and 40 nM
[8] = molecular target: T1, Mammalian expressed extracellular human RON protein (Gly25 to Thr957) with His-tag (human); test: KinExA, fixed antigen format
[9] = molecular target: T1, Mammalian expressed extracellular human RON protein (Gly25 to Thr957) with His-tag (human); test: KinExA titration, antibody titrated into fixed RON ECD concentrations of 10 nM and 1 nM [continued]

Measured: binding

B1: 9F2 (antibody, V domains shown)
VH: QVKLQQSGPGLVAPSQSLSITCTVSGFSLTSYGVHWVRQPPGKGLEWLGVIWAGGTTNYNSALMSRLSISKDNSKSQVFLKMNSLQTDDTAMYYCASYDYDGYFDVWGAGTTVTVSS
VL: DIVLTQTTAIMSASPGEKVTMTCSASSSVSYIHWYQQKSSTSPKLWIYDTSKLASGVPGRFSGSGSGNSYSLTISSMEAEDVATYYCFQGNKYPLTFGAGTKLELK
notes: Mouse monoclonal antibody from a hybridoma; kappa light chain; also called Antibody 9F2; anti-RON antibody 9F2
binds: [1] | [2] | [3] | [4]

B2: 6A9 (antibody, V domains shown)
VH: EVKLEESGPGLLKPSQSLSLTCTVTGSSITSDYAWNWIRQFPGNKLEWMGYIGYSVGTSHNPSLKGRISITRDTSKNQFFLHLNSVTTEDTAIYYCARRPLYFYYAMDFWGQGTSVTVSS
VL: DIVLTQSPSSLSASLGDRVTITCRASQDISKYLNWYQQKPDGTVKLLIYYTSTLHSGVPSRFSGSGSGTDFSLTITNLEQEDIATYFCQQGNTLPRTFGGGTKLEIK
notes: Mouse monoclonal antibody from a hybridoma; kappa light chain; also called Antibody 6A9; anti-RON antibody 6A9
binds: [5] | [2] | [3] | [4]

B3: 9F6 (antibody, V domains shown)
VH: QVKLEESGPELVKTGASVKISCKASGYSFTGYYIHWVKQSHGQSLEWIGYISCYNGATRYNQKFKGKAAFTVDTSSSTAYLQFNSLTSEDSAIYYCARGGTTATPFDYWGQGTTLTVSS
VL: DIVLTQTPSSLSASLGERVSLTCRASQDIGSNLNWLQQEPDGTIKRLIYATSSLDPGVPKRFSGSRSGSDYSLTISSLESEDFVDYYCLQYISSPFTFGSGTKLEIK
binds: [6] | [2] | [3] | [4]

B4: 3F6 (antibody, V domains shown)
VH: EVKLEESGPGLVKPSQSLSLTCSVTGYSITSGYYWNWIRQFPGNKLEWMGFMSYDGSNNYNPSLKNRISITRDTSKNQFFLKLNSVTSEDTATYYCSRALAYYGNFDYWGQGTTLTVSS
VL: DIVLTQTPSSLSASLGDRVTISCSASQDISNYLNWYQQKPDGIVKLLIYYTSSLHSGVPSRFSGSGSGTDFSLTISNLEPEDIATYYCQQYNKLPWTFGGGTKLEIK
notes: Mouse monoclonal antibody from a hybridoma; kappa light chain; also called anti-RON antibody 3F6
binds: [2] | [3] | [7] | [4]

B5: 3F8 (antibody, V domains shown)
VH: EVKLQESGGGLVQPGRSLKLSCVASGFTFSSFWMHWVRQSPEKGLEWVAEIRLKSNNYATHYAESVKGRFTISRDDSKSSVHLQMNNLRTEDTGIYYCIPPYYYTVDYWGQGTSVTVSS
VL: DIVLTQTPKVMSTSVGDRVSVTCKASQNVNTNVAWYQQKPGQSPKALIYSASSRYSGVPDRFTGSGSGTDFTLTISNVQSEDLADYFCQQYNTYPLTFAAGTKLELK
notes: Mouse monoclonal antibody from a hybridoma; kappa light chain; also called Antibody 3F8; anti-RON antibody 3F8
binds: [8] | [2] | [3] | [9] | [4]
